Data: publication PMC8692912
No constants are given. Whether binding was seen depends on the method and setting. Binding seen in cells or lysates may run through a third protein. Some entries that bind do so weakly or less than the wild type.

By UniProt entry, the sequences of proteins in these tests, tags left out.
UniProt P26041: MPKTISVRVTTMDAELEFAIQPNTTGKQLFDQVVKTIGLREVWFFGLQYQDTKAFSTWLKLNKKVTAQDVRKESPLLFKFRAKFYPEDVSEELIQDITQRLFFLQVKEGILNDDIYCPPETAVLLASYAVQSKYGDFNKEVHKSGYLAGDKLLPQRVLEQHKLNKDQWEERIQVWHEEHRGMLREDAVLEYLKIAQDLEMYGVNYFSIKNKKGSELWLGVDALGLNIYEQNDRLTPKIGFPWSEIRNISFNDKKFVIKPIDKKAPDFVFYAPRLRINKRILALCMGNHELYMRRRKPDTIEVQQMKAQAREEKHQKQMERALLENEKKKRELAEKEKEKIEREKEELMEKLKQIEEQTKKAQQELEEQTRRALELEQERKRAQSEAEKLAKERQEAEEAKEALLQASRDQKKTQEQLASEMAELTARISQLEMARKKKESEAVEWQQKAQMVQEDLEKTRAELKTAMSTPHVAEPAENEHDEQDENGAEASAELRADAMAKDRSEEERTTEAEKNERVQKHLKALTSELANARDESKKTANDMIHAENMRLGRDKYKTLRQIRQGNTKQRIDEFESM

Biological target: moesin (MSN) (mouse (endogenous in EO771)) (UniProt P26041)
Test: co-IP; rabbit antibody to MSN on protein A sepharose, incubated overnight with EO771 cell lysate; washed three times with PBS; blot for CD44; rabbit IgG as negative control

- binding: binds
B1: CD44 (receptor, UniProt P15379 23-778)
chain: QIDLNVTCRYAGVFHVEKNGRYSISRTEAADLCQAFNSTLPTMDQMKLALSKGFETCRYGFIEGNVVIPRIHPNAICAANHTGVYILVTSNTSHYDTYCFNASAPPEEDCTSVTDLPNSFDGPVTITIVNRDGTRYSKKGEYRTHQEDIDASNIIDDDVSSGSTIEKSTPEGYILHTYLPTEQPTGDQDDSFFIRSTLATIASTVHSKSHAAAQKQNNWIWSWFGNSQSTTQTQEPTTSATTALMTTPETPPKRQEAQNWFSWLFQPSESKSHLHTTTKMPGTESNTNPTGWEPNEENEDETDTYPSFSGSGIDDDEDFISSTIATTPRVSARTEDNQDWTQWKPNHSNPEVLLQTTTRMADIDRISTSAHGENWTPEPQPPFNNHEYQDEEETPHATSTTPNSTAEAAATQQETWFQNGWQGKNPPTPSEDSHVTEGTTASAHNNHPSQRITTQSQEDVSWTDFFDPISHPMGQGHQTESKDTDSSHSTTLQPTAAPNTHLVEDLNRTGPLSVTTPQSHSQNFSTLHGEPEEDENYPTTSILPSSTKSSAKDARRGGSLPTDTTTSVEGYTFQYPDTMENGTLFPVTPAKTEVFGETEVTLATDSNVNVDGSLPGDRDSSKDSRGSSRTVTHGSELAGHSSANQDSGVTTTSGPMRRPQIPEWLIILASLLALALILAVCIAVNSRRRCGQKKKLVINGGNGTVEDRKPSELNGEASKSQEMVHLVNKEPSETPDQCMTADETRNLQSVDMKIGV
